These are yes or no findings as the source states them, for the method shown. Binding seen in cells or lysates may run through a third protein. Some entries that bind do so weakly or less than the wild type. For part of these data: Sequences can lack the tags named with a protein. Blank lines part the entries; values can stand above or below the binder they belong to.
Tests used:
Settings in all cases: remark: other sources report otherwise
[1] = molecular target: T1, 53BP1 (immunoprecipitates of unstressed cells), Q12888; test: co-IP; follow-up immunoprecipitation assays in unstressed cells
T1 chain: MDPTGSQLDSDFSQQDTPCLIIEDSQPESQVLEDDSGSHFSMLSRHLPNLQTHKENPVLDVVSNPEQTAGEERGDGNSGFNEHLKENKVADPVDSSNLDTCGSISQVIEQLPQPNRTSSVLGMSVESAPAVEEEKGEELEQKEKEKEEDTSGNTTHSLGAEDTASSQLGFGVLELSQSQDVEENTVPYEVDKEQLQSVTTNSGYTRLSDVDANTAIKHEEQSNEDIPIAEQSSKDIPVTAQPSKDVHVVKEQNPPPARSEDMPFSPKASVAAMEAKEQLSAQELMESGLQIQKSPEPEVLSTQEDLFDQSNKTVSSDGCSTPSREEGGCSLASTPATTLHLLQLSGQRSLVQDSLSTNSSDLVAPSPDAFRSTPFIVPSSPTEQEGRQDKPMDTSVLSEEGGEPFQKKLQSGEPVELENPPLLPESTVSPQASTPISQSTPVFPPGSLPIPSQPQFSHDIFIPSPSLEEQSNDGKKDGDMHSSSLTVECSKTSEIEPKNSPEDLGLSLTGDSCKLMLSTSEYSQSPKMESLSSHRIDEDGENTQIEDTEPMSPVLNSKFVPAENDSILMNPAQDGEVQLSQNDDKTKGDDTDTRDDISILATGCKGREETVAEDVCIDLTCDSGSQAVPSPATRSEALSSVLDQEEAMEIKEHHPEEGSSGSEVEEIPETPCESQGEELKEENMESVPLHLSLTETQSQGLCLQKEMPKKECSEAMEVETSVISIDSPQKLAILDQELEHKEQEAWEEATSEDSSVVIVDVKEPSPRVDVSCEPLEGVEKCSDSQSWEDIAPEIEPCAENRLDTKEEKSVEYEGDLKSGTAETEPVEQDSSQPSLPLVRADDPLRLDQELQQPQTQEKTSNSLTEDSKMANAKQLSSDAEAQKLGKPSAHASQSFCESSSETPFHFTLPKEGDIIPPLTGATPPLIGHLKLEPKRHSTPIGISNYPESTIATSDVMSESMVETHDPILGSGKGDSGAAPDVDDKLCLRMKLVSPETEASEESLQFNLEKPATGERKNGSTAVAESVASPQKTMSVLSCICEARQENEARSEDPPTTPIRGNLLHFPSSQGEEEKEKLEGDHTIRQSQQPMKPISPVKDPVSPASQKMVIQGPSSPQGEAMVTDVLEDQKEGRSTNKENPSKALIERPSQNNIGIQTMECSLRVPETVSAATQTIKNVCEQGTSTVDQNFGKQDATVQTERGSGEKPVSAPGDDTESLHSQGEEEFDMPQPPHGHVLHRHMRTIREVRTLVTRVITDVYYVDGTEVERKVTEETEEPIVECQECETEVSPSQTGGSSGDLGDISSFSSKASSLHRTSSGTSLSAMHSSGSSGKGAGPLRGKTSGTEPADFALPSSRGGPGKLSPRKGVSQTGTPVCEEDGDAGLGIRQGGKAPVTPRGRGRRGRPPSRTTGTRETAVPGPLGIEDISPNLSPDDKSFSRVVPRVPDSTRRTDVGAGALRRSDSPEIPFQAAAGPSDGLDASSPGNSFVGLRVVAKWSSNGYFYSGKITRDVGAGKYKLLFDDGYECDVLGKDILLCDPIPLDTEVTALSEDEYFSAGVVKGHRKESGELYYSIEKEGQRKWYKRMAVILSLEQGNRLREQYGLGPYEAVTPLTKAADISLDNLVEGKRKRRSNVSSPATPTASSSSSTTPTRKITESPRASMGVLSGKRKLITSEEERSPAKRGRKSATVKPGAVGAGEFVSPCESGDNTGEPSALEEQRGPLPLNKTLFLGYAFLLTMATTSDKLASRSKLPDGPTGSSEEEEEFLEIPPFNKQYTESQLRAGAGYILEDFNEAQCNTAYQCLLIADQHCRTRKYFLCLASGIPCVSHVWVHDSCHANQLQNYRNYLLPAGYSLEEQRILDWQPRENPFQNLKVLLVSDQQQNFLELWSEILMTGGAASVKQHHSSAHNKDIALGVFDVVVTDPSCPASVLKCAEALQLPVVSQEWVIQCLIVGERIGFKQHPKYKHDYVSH

[2] = molecular target: T2, 53BP1 (human (endogenous in HLF)), Q12888; test: proximity ligation; PLA with antibodies against 53BP1 and HA-tag in HLF USP28-KO/WT/M cells, treated with DMSO or etoposide (5 uM, 30 min)
T2 chain: T1 chain

[3] = molecular target: T2, 53BP1 (human (endogenous in HLF)), …; test: co-IP; immunoprecipitation with antibodies against 53BP1 or control IgG from HLF cells expressing wildtype (WT) or monomeric (M) USP28

- binding [1]: binds
B1: USP28 (immunoprecipitates of unstressed cells), Q96RU2 1-1077 (enzyme)
chain: MTAELQQDDAAGAADGHGSSCQMLLNQLREITGIQDPSFLHEALKASNGDITQAVSLLTDERVKEPSQDTVATEPSEVEGSAANKEVLAKVIDLTHDNKDDLQAAIALSLLESPKIQADGRDLNRMHEATSAETKRSKRKRCEVWGENPNPNDWRRVDGWPVGLKNVGNTCWFSAVIQSLFQLPEFRRLVLSYSLPQNVLENCRSHTEKRNIMFMQELQYLFALMMGSNRKFVDPSAALDLLKGAFRSSEEQQQDVSEFTHKLLDWLEDAFQLAVNVNSPRNKSENPMVQLFYGTFLTEGVREGKPFCNNETFGQYPLQVNGYRNLDECLEGAMVEGDVELLPSDHSVKYGQERWFTKLPPVLTFELSRFEFNQSLGQPEKIHNKLEFPQIIYMDRYMYRSKELIRNKRECIRKLKEEIKILQQKLERYVKYGSGPARFPLPDMLKYVIEFASTKPASESCPPESDTHMTLPLSSVHCSVSDQTSKESTSTESSSQDVESTFSSPEDSLPKSKPLTSSRSSMEMPSQPAPRTVTDEEINFVKTCLQRWRSEIEQDIQDLKTCIASTTQTIEQMYCDPLLRQVPYRLHAVLVHEGQANAGHYWAYIYNQPRQSWLKYNDISVTESSWEEVERDSYGGLRNVSAYCLMYINDKLPYFNAEAAPTESDQMSEVEALSVELKHYIQEDNWRFEQEVEEWEEEQSCKIPQMESSTNSSSQDYSTSQEPSVASSHGVRCLSSEHAVIVKEQTAQAIANTARAYEKSGVEAALSEVMLSPAMQGVILAIAKARQTFDRDGSEAGLIKAFHEEYSRLYQLAKETPTSHSDPRLQHVLVYFFQNEAPKRVVERTLLEQFADKNLSYDERSISIMKVAQAKLKEIGPDDMNMEEYKKWHEDYSLFRKVSVYLLTGLELYQKGKYQEALSYLVYAYQSNAALLMKGPRRGVKESVIALYRRKCLLELNAKAASLFETNDDHSVTEGINVMNELIIPCIHLIINNDISKDDLDAIEVMRNHWCSYLGQDIAENLQLCLGEFLPRLLDPSAEIIVLKEPPTIRPNSPYDLCSRFAAVMESIQGVSTVTVK

- binding [2]: binds
- binding [3]: binds
B2: HA-tagged wildtype USP28 (USP28-WT), Q96RU2 1-1077 (enzyme)
chain: B1 chain

— PMC11024517
